PubChem BioAssay AID1508600 (Functional Genomics Laboratory (NCATS/FGL), 2020)
Hit rate of the full screen: of about 53,000 sequences, about 3,700 (7%) were called active.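 How the source made its calls: active means gene knockdowns whose robust z-score for IL-1 alpha signal is at least 2 or at most -2, so actives lie on both sides; inactive means the rest.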 This is one part of the list.

Test: Components of the Cytosolic LPS Sensing Pathway: Gene Identification via Genome-wide siRNA Screen;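 further: robust z of the log signal after scaling to non-targeting control siRNA wells of the plate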
Conditions: RAW264.7 macrophages, IL-1a HTRF, actives lie on both sides, screened at 100 nM (by protocol), cells primed 5 h with Pam3CSK4 first
In short: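 Knockdown: 100 nM siRNA, 48h, RAW264.7. Stimulation: Pam3CSK4 5 h, then LipidA via TransIT-TKO 24 h. Output: supernatant IL-1a HTRF, negative-control-normalized, log robust z-score; viability by CellTiter-Glo.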

z-score, inactive:
GCAUCUCGAUCAUAUCAUGTT against Pgm3 1.28
GGUUCUCGAAAUAAGAAUGTT against Mcm8 -0.121
GGAAGUAUUACCCUCAAUUTT against Zfp212 -0.674
GUGAAAGUCGGAUUCAGUGTT against Acat2 0.377
GGAAUAUUCUAUUCCCUUUTT against Trim25 1.67
GCCUGUCAUGGUUAUGACCTT against Shbg -0.803
GCAAAACCAUUUGAAAAUGTT against Negr1 0.438
GGAGAUGAAGCAAUGGCCCTT against Bmp15 1.13
GGCCAAGGUCAAUAACUCCTT against Rfc1 -0.755
CCUUGUUGAGAUCAAAUUGTT against Ubn2 1.53
GGCAUUCCUAAUGACACGGTT against Dpep3 -1.7
GGGAGAAUCUAACUAAGCCTT against Sirt7 0.383
GCAAUCACCAAAUCACUAGTT against Fstl1 -0.123
GAGACAAUUGUAACAUUCUTT against Olfr176 1.2
GGUGGAUGGCUUCACGCAUTT against Calr3 -0.925
GCUAGGGUCUUUGUUAUAUTT against A630023P12Rik -0.771
GGUCAGAAGUUAAUUUAUGTT against Rad23b -0.413
GCCUAAGAAGGAUAGUAUUTT against Taf5 0.0415
GGAAAAAUGGGAGUUUGAATT against Ccdc83 -0.291
GGAAAACCUCAAACCUAACTT against Oas2 0.12
GGUCGUAUUGCGCUAUAGCTT against Sh2b3 -0.364
AAGGUGCAGAGUUACACGUTT against H2-T10 1.17
GGAGUGGAUGUGAUUAUCATT against Dao -0.849
CCAGAGAUUGGACACAUCUTT against Vps33b -1.67
CCCUAGCAAAGCUACUUUCTT against Nhej1 -1.67
GGUUUAGCUGCUGACUUAATT against Strn3 1.03
CCAAGUGACUACCAUGUCATT against Prss40 -1.75
GCUAUUCCAACAUGAAUCCTT against Klk1b21 0.712
GGGUUAUUCUACGAAUGCUTT against Thumpd1 -1.9
CCACCUCAGCUCUUGUGAUTT against H2-Ab1 -0.598
GGGUGCAUGUGUCAGAUUUTT against Olfr1277 0.163
CCAUCAACCAAUCAUACAGTT against Ints6 1.17
GCAGUAACCUUCUAACAAATT against Foxn2 -0.367
GGCAGUCGGGAUUGUAAAATT against Gpr3 -0.994
GGCUAUGCAGAUAAAUAUGTT against Lctl -1.09
GGACACCAACAUAUUGUUCTT against Slc13a2 -0.128
GCGGUGUGAAGAUUGUACATT against Hsd17b3 0.937
GGGUUAGACGAAGAUGAGATT against Psme3ip1 -1.06
CGAUAGUUUACAUGCUGAATT against Prr36 0.412
CAUAAAGGUGGCACUAAUATT against Cnrip1 -0.842
GGUCUUGGAUGCAAACGAUTT against Pcdhga2 0.518
GCAUGAAGGACUUUCGAAGTT against Tmem242 0.152
CCGCAUAUUUCAAUAAAUCTT against Rpl4 -0.703
GGUUCUUCCCAGAAGGAGGTT against Pramel12 0.588
GGAGUUUAUCUUCAAGCAGTT against Tcp11 0.815
CCGAAUAAAGAUUCAUUCATT against Plin2 0.455
GGCUUCCUGACUGUUCAGATT against Vmn1r25 -0.292
CCUUAGUAACAGCACUAGCTT against Lrfn2 -0.228
GGCAAAAAACAAAGACCUUTT against Prl7d1 -0.0334
CCUUUAUCUUGGGAAUUGGTT against Pik3ca -0.854
CCCUCCACUCCGUUUUUAUTT against Stim2 -0.43

Reprinted from the listing (4 entries):
z-score, inactive:
CCGAAUAAAGAUUCAUUCATT against Plin2 0.455
GGCUUCCUGACUGUUCAGATT against Vmn1r25 -0.292
CCUUAGUAACAGCACUAGCTT against Lrfn2 -0.228
GGCAAAAAACAAAGACCUUTT against Prl7d1 -0.0334

Next part:

z-score, active:
GGGAGCCAAUGAAAUCAAGTT against Hmbox1 3.31
GCUACACCGUAACAUGCUATT against Zer1 2.19
